Test results reported in the supplement of paper PMC10849652.
The list shows a part of the results. Residues, ends and D or L forms follow the SMILES beside them. *: point of attachment. Cbz = O=C(OCc1ccccc1)*

The chains behind the UniProt entries cited, without tags or fusion partners. Where a name states a change or a piece, a line headed by the entry shows the natural chain unless it says otherwise.
UniProt Q6Y2X3: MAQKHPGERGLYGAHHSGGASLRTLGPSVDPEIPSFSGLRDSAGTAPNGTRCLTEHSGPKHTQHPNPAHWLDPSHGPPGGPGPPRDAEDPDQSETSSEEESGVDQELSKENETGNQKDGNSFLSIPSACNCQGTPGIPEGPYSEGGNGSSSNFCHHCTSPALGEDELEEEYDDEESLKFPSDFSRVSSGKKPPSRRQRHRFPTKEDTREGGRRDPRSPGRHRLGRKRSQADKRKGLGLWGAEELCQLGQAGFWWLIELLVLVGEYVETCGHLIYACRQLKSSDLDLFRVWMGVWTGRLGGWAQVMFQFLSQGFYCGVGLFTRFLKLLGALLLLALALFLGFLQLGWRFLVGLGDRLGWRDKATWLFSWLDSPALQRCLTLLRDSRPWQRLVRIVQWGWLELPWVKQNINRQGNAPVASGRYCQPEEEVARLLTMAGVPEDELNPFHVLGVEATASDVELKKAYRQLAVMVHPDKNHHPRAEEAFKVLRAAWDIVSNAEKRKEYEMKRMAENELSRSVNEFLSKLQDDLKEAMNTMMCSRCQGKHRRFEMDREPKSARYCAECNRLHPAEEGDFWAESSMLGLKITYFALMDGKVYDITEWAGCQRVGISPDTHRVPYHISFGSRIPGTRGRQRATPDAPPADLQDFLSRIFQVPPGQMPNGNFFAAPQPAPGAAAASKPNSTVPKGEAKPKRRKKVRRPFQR
UniProt Q9UBS3: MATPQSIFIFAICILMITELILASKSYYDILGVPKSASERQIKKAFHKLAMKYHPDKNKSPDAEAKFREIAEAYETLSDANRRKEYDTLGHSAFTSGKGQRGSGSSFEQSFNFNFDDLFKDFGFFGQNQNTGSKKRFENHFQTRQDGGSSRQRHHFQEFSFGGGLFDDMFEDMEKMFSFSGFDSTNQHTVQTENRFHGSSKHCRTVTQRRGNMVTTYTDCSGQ
UniProt Q6XUX3: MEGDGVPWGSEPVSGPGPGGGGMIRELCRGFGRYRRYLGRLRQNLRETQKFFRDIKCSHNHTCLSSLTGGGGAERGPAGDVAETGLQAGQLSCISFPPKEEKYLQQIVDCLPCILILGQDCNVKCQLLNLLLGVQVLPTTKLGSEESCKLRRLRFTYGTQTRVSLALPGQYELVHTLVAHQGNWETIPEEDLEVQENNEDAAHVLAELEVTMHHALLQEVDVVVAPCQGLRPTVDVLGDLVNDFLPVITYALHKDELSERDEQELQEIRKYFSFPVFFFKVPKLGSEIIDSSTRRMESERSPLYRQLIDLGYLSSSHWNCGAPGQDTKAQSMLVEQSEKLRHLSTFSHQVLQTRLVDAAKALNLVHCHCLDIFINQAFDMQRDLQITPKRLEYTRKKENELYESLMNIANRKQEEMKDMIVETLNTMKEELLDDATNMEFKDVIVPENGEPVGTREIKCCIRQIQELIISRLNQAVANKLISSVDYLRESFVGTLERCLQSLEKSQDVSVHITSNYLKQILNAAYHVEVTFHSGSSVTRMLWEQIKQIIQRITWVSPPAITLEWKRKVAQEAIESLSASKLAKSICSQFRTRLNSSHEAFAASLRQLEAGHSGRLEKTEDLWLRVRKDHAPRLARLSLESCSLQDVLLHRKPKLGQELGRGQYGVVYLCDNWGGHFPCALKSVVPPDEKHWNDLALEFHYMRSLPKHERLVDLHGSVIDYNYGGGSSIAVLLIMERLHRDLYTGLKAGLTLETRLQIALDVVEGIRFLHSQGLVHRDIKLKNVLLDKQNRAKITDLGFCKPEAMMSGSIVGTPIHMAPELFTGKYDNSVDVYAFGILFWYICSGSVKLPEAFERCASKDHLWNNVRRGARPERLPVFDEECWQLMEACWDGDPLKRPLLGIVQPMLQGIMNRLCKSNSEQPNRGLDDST
UniProt Q8TCX1: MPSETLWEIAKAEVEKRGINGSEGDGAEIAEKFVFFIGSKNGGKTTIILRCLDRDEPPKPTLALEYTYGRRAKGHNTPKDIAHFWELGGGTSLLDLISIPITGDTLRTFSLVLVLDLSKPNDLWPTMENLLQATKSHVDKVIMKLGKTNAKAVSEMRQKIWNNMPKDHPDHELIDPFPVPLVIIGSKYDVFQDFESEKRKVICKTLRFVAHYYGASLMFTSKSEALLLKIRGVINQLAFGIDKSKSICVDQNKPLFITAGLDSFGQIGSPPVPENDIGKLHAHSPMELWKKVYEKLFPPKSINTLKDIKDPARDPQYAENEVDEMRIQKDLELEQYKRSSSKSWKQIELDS
UniProt Q9NNZ3: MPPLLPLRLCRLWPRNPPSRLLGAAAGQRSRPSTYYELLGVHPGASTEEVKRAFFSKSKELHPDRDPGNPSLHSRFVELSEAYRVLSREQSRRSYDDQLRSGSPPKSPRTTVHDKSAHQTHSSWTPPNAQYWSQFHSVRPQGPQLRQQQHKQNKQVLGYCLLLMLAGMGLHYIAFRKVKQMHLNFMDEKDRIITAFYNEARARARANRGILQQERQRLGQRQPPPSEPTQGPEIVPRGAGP
UniProt O14641: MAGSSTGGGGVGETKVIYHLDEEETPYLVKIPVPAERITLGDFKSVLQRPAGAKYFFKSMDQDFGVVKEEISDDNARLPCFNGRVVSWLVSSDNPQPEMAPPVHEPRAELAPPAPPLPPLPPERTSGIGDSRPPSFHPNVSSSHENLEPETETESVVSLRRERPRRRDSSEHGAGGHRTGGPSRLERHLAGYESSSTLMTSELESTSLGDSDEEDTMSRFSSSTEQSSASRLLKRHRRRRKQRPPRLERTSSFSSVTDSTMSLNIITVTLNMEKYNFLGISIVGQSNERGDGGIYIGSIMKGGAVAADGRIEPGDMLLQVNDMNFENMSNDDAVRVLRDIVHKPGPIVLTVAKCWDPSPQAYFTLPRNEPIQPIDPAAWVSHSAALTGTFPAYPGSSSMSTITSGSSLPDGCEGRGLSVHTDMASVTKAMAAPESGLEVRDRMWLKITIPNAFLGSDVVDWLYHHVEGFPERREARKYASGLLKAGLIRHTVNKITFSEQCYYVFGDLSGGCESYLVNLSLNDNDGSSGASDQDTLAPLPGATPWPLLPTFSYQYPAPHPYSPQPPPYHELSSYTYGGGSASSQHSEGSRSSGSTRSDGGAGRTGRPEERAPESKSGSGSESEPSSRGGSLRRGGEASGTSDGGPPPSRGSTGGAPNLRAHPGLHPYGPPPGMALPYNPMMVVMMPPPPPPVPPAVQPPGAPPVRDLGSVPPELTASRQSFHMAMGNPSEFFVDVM
UniProt Q16610: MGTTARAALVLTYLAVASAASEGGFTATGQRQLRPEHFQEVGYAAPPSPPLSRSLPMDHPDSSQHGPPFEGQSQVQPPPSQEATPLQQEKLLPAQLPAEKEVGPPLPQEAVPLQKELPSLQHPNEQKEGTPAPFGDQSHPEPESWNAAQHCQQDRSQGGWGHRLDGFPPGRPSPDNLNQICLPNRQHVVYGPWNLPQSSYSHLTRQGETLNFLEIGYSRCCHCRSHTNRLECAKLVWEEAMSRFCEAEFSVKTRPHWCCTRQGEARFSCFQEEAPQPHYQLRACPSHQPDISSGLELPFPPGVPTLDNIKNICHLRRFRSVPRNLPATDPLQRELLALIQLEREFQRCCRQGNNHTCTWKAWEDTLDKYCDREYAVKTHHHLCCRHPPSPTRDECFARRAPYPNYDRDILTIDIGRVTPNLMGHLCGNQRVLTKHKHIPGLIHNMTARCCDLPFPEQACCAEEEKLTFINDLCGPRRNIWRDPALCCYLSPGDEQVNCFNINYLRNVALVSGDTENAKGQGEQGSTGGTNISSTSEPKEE
UniProt P25686: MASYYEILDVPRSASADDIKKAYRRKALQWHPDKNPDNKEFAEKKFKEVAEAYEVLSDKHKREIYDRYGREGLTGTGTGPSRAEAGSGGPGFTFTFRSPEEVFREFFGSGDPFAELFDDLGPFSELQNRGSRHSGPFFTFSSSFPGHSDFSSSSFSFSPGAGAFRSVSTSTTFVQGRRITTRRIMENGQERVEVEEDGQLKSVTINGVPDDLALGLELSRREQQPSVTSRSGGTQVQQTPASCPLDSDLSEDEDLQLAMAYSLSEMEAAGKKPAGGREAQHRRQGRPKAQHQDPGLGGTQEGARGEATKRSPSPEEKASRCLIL
UniProt Q6P1R4: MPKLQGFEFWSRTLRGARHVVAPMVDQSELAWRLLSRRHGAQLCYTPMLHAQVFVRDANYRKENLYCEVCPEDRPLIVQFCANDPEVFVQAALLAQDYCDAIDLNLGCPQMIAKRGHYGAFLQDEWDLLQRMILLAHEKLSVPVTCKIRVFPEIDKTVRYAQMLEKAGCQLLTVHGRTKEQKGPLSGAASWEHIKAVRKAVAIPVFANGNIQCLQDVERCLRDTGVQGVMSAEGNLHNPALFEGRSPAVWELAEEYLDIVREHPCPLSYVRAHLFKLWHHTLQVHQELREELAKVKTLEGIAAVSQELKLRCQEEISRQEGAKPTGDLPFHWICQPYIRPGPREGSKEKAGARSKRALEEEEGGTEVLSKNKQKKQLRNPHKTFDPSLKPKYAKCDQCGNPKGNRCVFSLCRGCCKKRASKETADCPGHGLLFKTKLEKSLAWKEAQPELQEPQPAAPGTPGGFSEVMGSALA
UniProt Q7L591: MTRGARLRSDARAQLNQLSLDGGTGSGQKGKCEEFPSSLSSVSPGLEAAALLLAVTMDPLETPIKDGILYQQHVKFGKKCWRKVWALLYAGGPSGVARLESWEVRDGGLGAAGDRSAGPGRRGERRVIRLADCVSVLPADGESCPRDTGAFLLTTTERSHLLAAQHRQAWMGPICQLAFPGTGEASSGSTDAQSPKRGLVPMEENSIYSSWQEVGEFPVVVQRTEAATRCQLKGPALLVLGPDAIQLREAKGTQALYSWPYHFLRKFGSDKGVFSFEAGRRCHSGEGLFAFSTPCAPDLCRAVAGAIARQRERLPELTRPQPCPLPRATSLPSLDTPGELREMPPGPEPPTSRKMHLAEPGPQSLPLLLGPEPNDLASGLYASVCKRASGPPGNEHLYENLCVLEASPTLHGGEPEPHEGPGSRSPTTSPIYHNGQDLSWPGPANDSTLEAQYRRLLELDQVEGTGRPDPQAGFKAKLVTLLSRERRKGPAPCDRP
UniProt Q9Y5T4: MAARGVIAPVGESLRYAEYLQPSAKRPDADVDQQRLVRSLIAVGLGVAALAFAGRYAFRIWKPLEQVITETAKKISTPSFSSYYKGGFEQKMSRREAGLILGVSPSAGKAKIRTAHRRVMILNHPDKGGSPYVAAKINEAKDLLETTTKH
UniProt P49184: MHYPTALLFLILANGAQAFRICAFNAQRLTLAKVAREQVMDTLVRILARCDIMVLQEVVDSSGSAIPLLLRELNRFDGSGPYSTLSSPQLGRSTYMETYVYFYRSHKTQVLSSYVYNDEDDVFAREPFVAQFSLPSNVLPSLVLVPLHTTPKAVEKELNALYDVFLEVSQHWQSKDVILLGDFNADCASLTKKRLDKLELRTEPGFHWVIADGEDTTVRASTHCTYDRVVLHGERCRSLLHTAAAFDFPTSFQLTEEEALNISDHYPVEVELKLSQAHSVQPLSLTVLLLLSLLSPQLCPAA
UniProt Q5SXM8: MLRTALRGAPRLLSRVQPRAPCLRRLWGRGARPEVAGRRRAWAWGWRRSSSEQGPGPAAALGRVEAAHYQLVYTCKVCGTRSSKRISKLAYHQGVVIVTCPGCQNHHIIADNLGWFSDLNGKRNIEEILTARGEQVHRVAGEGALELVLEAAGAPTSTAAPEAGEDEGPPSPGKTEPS
UniProt Q05193: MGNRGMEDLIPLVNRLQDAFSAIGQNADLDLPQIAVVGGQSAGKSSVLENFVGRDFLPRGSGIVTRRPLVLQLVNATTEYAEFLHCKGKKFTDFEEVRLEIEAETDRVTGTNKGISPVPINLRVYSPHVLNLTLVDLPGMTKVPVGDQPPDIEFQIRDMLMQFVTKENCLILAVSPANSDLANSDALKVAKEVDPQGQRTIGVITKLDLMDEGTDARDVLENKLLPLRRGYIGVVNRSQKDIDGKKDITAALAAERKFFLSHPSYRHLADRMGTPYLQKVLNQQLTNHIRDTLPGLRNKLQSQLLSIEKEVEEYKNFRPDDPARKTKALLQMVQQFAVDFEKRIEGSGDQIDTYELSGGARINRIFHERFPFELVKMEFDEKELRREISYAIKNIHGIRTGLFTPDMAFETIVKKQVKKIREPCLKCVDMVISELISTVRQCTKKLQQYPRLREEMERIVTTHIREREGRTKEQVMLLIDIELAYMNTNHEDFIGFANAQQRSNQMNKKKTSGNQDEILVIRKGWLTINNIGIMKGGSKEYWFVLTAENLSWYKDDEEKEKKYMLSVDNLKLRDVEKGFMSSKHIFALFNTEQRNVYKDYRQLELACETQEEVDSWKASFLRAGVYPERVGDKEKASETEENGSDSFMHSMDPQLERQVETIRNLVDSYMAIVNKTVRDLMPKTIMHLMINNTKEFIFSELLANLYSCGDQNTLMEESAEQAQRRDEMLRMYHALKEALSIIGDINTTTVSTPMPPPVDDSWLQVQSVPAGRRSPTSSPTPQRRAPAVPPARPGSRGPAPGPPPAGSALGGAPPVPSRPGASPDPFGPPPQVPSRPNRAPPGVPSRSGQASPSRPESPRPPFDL

Assays:
Assay in all cases: log2 fold change, soluble protein after heating vs DMSO (PISA); higher = thermal stabilisation; K562 cells, 10 uM, 30 min; active = over 0.2 and 3.5 SD of the protein, either way, in both replicates (recomputed)
ralimetinib = compound: CC(C)(C)Cn1c(N)nc2ccc(-c3[nH]c(C(C)(C)C)nc3-c3ccc(F)cc3)nc21 [ralimetinib]
Summary of the method: (§1)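 Soluble protein was quantified by TMTpro 16plex LC-MS/MS after channel sums were equalised. It was obtained as the supernatant after 21,000xg for 90 min from pooled aliquots of K562 cells (2×10^6 cells/mL, 10 μM compound, 30 min) heated for 3 min across 48°C-58°C and extracted in PBS with 0.5% NP-40 at 4°C. Thermal stability values are relative to control samples and come from duplicates. They are given as log2 fold changes.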

[1] = compound: CC(C)C[C@@H](C=O)NC(=O)[C@H](CC(C)C)NC(=O)[C@H](CC(C)C)NC(=O)OCc1ccccc1
Summary of the method: as §1

[2] = compound: CC1=C(C=C(C=C1)NC(=O)C2=CC(=CC=C2)N(C)C)NC(=O)C3=CC=C(C=C3)O
Summary of the method: as §1

IRAK-1-4 Inhibitor I = compound: C1COCCN1CCN2C3=CC=CC=C3N=C2NC(=O)C4=CC(=CC=C4)[N+](=O)[O-] [IRAK-1-4 Inhibitor I]
Summary of the method: as §1

[3] = compound: CC(C)(O)CC(=O)NCCn1ccc2ncnc(Nc3ccc(Oc4cccc(C(F)(F)F)c4)c(Cl)c3)c21
Summary of the method: as §1

pinometostat = compound: CC(C)N(C[C@H]1O[C@@H](n2cnc3c(N)ncnc32)[C@H](O)[C@@H]1O)[C@H]1C[C@@H](CCc2nc3cc(C(C)(C)C)ccc3[nH]2)C1 [pinometostat]
Summary of the method: as §1

[4] = compound: CC1=C(C=C(C=C1)NC(=O)C2=CC(=CC=C2)C(C)(C)C#N)NC3=CC4=C(C=C3)N=CN(C4=O)C
Summary of the method: as §1

[5] = compound: CC1=NC(=CC=C1)C2=C(N=C(N2)C(C)(C)C)C3=CC4=NC=CN=C4C=C3
Summary of the method: as §1

Nexturastat A = compound: CCCCN(Cc1ccc(C(=O)NO)cc1)C(=O)Nc1ccccc1 [Nexturastat A]
Summary of the method: as §1

vemurafenib = compound: CCCS(=O)(=O)Nc1ccc(F)c(C(=O)c2c[nH]c3ncc(-c4ccc(Cl)cc4)cc23)c1F [vemurafenib]
Summary of the method: as §1

[6] = compound: CC1=CC=C(C=C1)SC2=C3C=C(SC3=CN=C2)C(=O)N
Summary of the method: as §1

[7] = compound: CCCS(=O)(=O)Nc1ccc(F)c(C(=O)c2c[nH]c3ncc(Cl)cc23)c1F
Summary of the method: as §1

[8] = compound: CC(C)C1=C2N=C(C=C(N2N=C1)NCC3=CC=CC=C3)NCCCCCCN
Summary of the method: as §1

givinostat = compound: CCN(CC)Cc1ccc2cc(COC(=O)Nc3ccc(C(=O)NO)cc3)ccc2c1 [givinostat]
Summary of the method: as §1

[9] = compound: CC1=C(C(CC(=O)N1)C2=CC=C(C=C2)C(F)(F)F)C(=O)NC3=C(C=C4C(=C3)C=NN4)F
Summary of the method: as §1

[10] = compound: CCCc1cc(C)[nH]c(=O)c1CNC(=O)c1cc(-c2ccnc(N3CCN(C)CC3)c2)cc2c1cnn2C(C)C
Summary of the method: as §1

[11] = compound: CC(=O)c1cnc2ccc(-c3cc(Cl)c(O)c(Cl)c3)nc2c1N[C@H]1CC[C@H](CN(C)C)CC1
Summary of the method: as §1

[12] = compound: CC1=C(C2=C(C=C1)C(=O)C3=CC=CC=C3N2CCCN)C
Summary of the method: as §1

ibrutinib = compound: C=CC(=O)N1CCC[C@@H](n2nc(-c3ccc(Oc4ccccc4)cc3)c3c(N)ncnc32)C1 [ibrutinib]
Summary of the method: as §1

barasertib = compound: CCN(CCCOc1ccc2c(Nc3cc(CC(=O)Nc4cccc(F)c4)[nH]n3)ncnc2c1)CCOP(=O)(O)O [barasertib]
Summary of the method: as §1

Measured: log2 fold change

E4F1 (UniProt H3BN24)
inactive: ralimetinib -0.105 | [1] 0.434 | [2] -0.286

DUSP12 (UniProt V9GYV5)
inactive: IRAK-1-4 Inhibitor I 0.095 | [3] -0.133 | pinometostat 0 | [4] -0.174 | [5] -0.248 | Nexturastat A 0.027 | vemurafenib 0.095

DYNC1I1 (UniProt O14576)
inactive: ralimetinib 0.09 | [3] 0.006 | [1] 0.004 | [2] -0.189 | [6] -0.088 | Nexturastat A 0.347 | vemurafenib 0.078 | [7] 0.022

DUSP19 (UniProt Q8WTR2)
inactive: [8] -0.316 | givinostat -0.022

DNAJB14 (UniProt H7C494)
inactive: IRAK-1-4 Inhibitor I 0.097 | pinometostat -0.162 | [9] 0.044 | [6] -0.172 | [5] 0.112 | vemurafenib -0.069 | [7] 0.013 | [10] 0.094

DNAJC14 (UniProt Q6Y2X3)
inactive: [10] -0.334

DNAJB9 (UniProt Q9UBS3)
inactive: [8] 0.097 | givinostat 0.163

DROSHA (UniProt Q9NRR4)
inactive: [11] 0.07 | [3] -0.186 | [12] -0.1 | Nexturastat A 0.2

DOCK11, A0A0J9YW64
inactive: IRAK-1-4 Inhibitor I -0.082 | pinometostat 0.352 | [4] 0.192 | [5] -0.169 | [10] -0.088

DOCK1 (UniProt Q14185)
inactive: ibrutinib -0.088 | [11] -0.196 | ralimetinib -0.442 | [3] -0.068 | [8] -0.057 | [1] 0.012 | [4] 0.049 | [2] -0.064 | [6] -0.063 | Nexturastat A -0.004 | vemurafenib -0.18 | [7] -0.047 | givinostat 0.095 | barasertib 0.123

DYNLT3 (UniProt P51808)
inactive: ibrutinib 0.065 | [11] 0.028 | [9] 0.045 | barasertib -0.018

Quoted at random: two records from the list, in no set order.
DNAJB9 (UniProt Q9UBS3)
inactive: [8] 0.097 | givinostat 0.163

DOCK11, A0A0J9YW64
inactive: IRAK-1-4 Inhibitor I -0.082 | pinometostat 0.352 | [4] 0.192 | [5] -0.169 | [10] -0.088

Going on with the list:

DRAP1 (UniProt E9PQX9)
inactive: [11] 0.018 | [8] 0.171 | [12] 0.137 | [6] 0.019 | [7] 0.037 | [10] -0.604 | givinostat 0.154

DNAJB1 (UniProt M0R128)
inactive: ibrutinib -0.077 | [12] 0.111 | vemurafenib -0.002 | barasertib 0.135

DSTYK (UniProt Q6XUX3)
inactive: ibrutinib -0.133 | [3] -0.172 | [8] 0.046 | [9] 0.041 | [12] 0.081 | Nexturastat A 0.182 | vemurafenib -0.037 | givinostat 0.02 | barasertib 0.056

DNPH1 (UniProt H0Y8X4)
inactive: [11] 0.027 | ralimetinib 0.048 | [8] -0.023 | [1] 0.347 | [9] 0.261 | [12] 0.122 | [2] 0.274 | [6] -0.092 | [7] 0.016 | [10] -0.087 | givinostat 0.029

DYNC2LI1 isoform 2 (UniProt Q8TCX1)
inactive: ralimetinib -0.129 | [3] 0 | [8] -0.17 | [1] 0.182 | [4] 0.02 | [2] -0.167 | [6] 0.018 | Nexturastat A -0.148 | vemurafenib 0.019 | [7] -0.044 | [10] -0.024 | givinostat -0.138

DNAJC4 (UniProt Q9NNZ3)
inactive: ralimetinib -0.103 | [1] 0.287 | [2] -0.015 | [6] -0.014 | [7] -0.061

DVL2 (UniProt O14641)
inactive: [11] -0.229 | [3] 0.003 | [4] -0.036 | [6] -0.217 | Nexturastat A 0.485 | [7] -0.263

DPYSL3 isoform 2 (UniProt Q14195)
inactive: [8] 0 | [6] -0.068 | vemurafenib -0.166 | [7] -0.035 | givinostat -0.012

DOLK (UniProt Q9UPQ8)
inactive: ibrutinib -0.145 | [11] -0.016 | [3] -0.358 | [8] -0.371 | [9] -0.023 | [4] 0.099 | Nexturastat A -0.093 | givinostat 0.23 | barasertib 0.23

ECM1 isoform 2 (UniProt Q16610)
inactive: ibrutinib 0.154 | [11] 0.076 | [9] -0.626 | [12] 1.07 | vemurafenib 0.373 | [10] 0.211 | barasertib 0.535

ECT2 isoform 3 (UniProt Q9H8V3)
inactive: ralimetinib -0.013 | [3] 0.052 | [1] 0.153 | [4] -0.313 | [2] -0.04 | Nexturastat A 0.114

DOP1A (UniProt Q5JWR5)
inactive: ibrutinib -0.093 | [3] -0.054 | [8] 0.092 | vemurafenib 0.045 | [10] -0.166 | givinostat 0.057 | barasertib -0.047
active: Nexturastat A 0.47

DOCK7 (UniProt Q96N67)
inactive: ibrutinib -0.052 | [11] 0.01 | ralimetinib -0.02 | [3] -0.015 | [8] -0.06 | [1] -0.105 | [9] -0.072 | [12] 0.016 | [4] -0.037 | [2] 0.008 | [6] 0.011 | Nexturastat A -0.063 | vemurafenib 0.03 | [7] 0.007 | [10] 0.061 | givinostat 0.017 | barasertib -0.005

DNAJB2 (UniProt P25686)
inactive: ralimetinib 0.071 | [3] -0.19 | [1] 0.076 | [2] 0 | [6] -0.207 | Nexturastat A 0.039 | [7] -0.143

DUS1L (UniProt Q6P1R4)
inactive: ralimetinib -0.083 | [8] -0.04 | [1] 0.262 | [12] -0.001 | [2] 0.151 | [10] -0.26 | givinostat -0.152

DOK3 (UniProt Q7L591)
inactive: ibrutinib -0.001 | [11] -0.048 | [3] -0.043 | [8] -0.007 | [12] 0.098 | [4] 0.098 | [6] -0.015 | Nexturastat A 0.145 | vemurafenib 0.027 | [7] -0.013 | [10] -0.076 | givinostat 0.093 | barasertib -0.095

DNAJC15 (UniProt Q9Y5T4)
inactive: [4] -0.053 | [6] 0.127 | [7] 0.024

DNASE1L1 (UniProt P49184)
inactive: [11] 0.054 | [8] -0.246 | givinostat 0.03

DNLZ (UniProt Q5SXM8)
inactive: ibrutinib 0.065 | [11] 0.068 | ralimetinib -0.177 | [3] 0.03 | [8] 0.095 | [1] 0.041 | [9] 0.024 | [12] -0.073 | [4] -0.114 | [2] -0.025 | [6] -0.098 | Nexturastat A -0.267 | vemurafenib 0.022 | [7] -0.056 | [10] -0.024 | givinostat -0.014 | barasertib -0.08

EDRF1 (UniProt Q3B7T1)
inactive: ibrutinib 0.068 | ralimetinib 0.04 | [3] 0.048 | [8] 0.004 | [1] 0.066 | [4] -0.022 | [2] 0.21 | Nexturastat A -0.042 | [10] 0.019 | givinostat 0.114 | barasertib -0.036

DNM1 (UniProt Q05193)
inactive: [3] 0.367 | [8] 0.152 | Nexturastat A 0.127 | vemurafenib -0.102 | givinostat -0.05
